# Reference: patent publication US20230181748A1, “MEANS AND METHODS FOR THE TREATMENT OF PATHOLOGICAL AGGREGATION” (priority 2020, published 2023)
# Protein sequences, listed by entry. Tags and fused reporters are not part of them. Lines headed by an entry give the natural chain unless they say otherwise; changes in a name come on top.
# UniProt P10636: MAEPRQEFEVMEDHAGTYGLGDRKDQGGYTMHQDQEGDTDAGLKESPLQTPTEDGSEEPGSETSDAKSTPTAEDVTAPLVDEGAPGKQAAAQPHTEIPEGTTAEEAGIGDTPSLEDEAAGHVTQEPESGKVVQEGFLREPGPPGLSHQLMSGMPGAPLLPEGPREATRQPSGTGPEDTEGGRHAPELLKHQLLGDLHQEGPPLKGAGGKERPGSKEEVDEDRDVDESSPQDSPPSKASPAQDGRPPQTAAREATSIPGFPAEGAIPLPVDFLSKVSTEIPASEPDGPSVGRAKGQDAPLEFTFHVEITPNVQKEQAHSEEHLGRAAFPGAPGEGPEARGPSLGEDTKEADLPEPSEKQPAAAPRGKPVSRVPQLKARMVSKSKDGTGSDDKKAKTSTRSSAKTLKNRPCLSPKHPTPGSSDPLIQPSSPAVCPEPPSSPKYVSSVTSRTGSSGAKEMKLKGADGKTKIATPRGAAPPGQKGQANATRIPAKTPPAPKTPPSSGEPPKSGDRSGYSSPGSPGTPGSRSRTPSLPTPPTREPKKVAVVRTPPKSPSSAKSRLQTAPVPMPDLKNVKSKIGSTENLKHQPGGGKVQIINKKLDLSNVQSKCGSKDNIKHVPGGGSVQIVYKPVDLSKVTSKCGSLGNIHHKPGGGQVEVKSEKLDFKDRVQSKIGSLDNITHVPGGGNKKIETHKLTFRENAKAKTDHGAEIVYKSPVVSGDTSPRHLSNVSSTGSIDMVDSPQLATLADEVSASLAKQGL
# Results are given in words; binding and its absence hold for the method and conditions named. Some results given as binding are weak or reduced against the parent protein; the word gives no strength.
# B1: HET (peptide)
# peptide: WQIVYKGSVWMINK
# B2: HET_JAV (peptide)
# peptide: WQIVYKGSVWMINKGSGSNLLRLTGW
# Molecular target: atto-633-labeled preformed tau aggregates (UniProt P10636)
# Assay: Microscale Thermophoresis (MST), atto-633-labeled preformed tau aggregates with a concentration range of peptide
row,Binder,binding
1,B1,binds
2,B2,binds
